Laboratory results reported in PubChem BioAssay AID2685 (National Center for Advancing Translational Sciences (NCATS), 2010).
This is one part of the list. Further columns of the screen follow, without active or inactive calls. Most of these compounds were active or inconclusive in the main read-out, so they are no random draw. Potencies come from curve fits of mixed quality, noted in brackets.

Test: qHTS Assay for Lipid Storage Modulators in Drosophila S3 Cells;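 as to cell number change: cells counted by Cell Tracker Red CMTPX staining in the red channel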
Conditions: BODIPY lipid droplet fluorescence, 18-24 h; for cell number change: measured here: cell count max response, cells fed with added oleic acid
Method in brief: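 Laser-scanning cytometry quantifies lipid droplet accumulation (500–530 nm total intensity; droplet/cell object ratio) in oleic acid-fed (400 uM added) Drosophila S3 cells treated with a concentration series. 20 uM Triacsin C defined 100% inhibition.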

[1] = measured here: lipid fluorescence (Fed channel) AC50, cells fed with added oleic acid
[2] = measured here: cell number channel AC50, cells fed with added oleic acid

Compound | cell number change | AC50 [1] | AC50 [2]
COc1cccc(-n2cc3c(=O)n(C)c(=O)n(C)c3c2)c1 | -0.847% | 0.291 µM [rising, partial curve, poor fit] | 
CCN(Cc1nc2cc(Cl)ccc2c(=O)[nH]1)C(=O)c1cc2c(s1)CCCCC2 |  | 0.731 µM [rising, single point] | 6.51 µM [falling, single point]
Cc1cc(-c2ccccc2)nc(SCc2ccc(C(=O)O)cc2)n1 | -6.96% | 0.116 µM [rising, full curve, poor fit] | 
COc1ccc(C2Nc3ccccc3C(=O)N2c2ccc(C)cc2)cc1Cn1cc([N+](=O)[O-])cn1 (stereo unspecified) |  | 0.58 µM [rising, single point] | 
CCOc1ccc(NC(=O)c2ccccc2NC(=O)c2cccnc2)cc1 | -5.18% | 29.1 µM [falling, partial curve, poor fit] | 
O=C(Nc1ccccn1)C1CCN(S(=O)(=O)c2ccccc2)CC1 | -5.63% | 3.26 µM [falling, partial curve] | 
Cc1ccn2cc(-c3ccc(S(=O)(=O)N4CCOCC4)cc3)nc2c1 | -7.69% |  | 
CC1CCCC/C1=N/Nc1ccc([N+](=O)[O-])cc1[N+](=O)[O-] (stereo unspecified) | -2.96% |  | 
O=C(c1cc(Br)ccc1Cl)N1CCCC1 | 15.9% |  | 
CNC(=O)c1c(NC(=O)c2ccco2)sc(C)c1C |  | 29.1 µM [falling, single point] | 0.58 µM [falling, single point]
O=C(O)CCCCCCNS(=O)(=O)c1ccccc1 | -6.46% | 6.51 µM [falling, partial curve] | 
O=C1/C(=C/c2ccccn2)SC(=S)N1CCc1ccccc1 | -33.7% |  | 0.411 µM [falling, full curve, poor fit]
Nc1ncc(-n2cncn2)c(-c2ccccc2)n1 | 0.782% |  | 
CC(C)(C)CC(C)(C)N=C1NS(=O)(=O)c2cc([N+](=O)[O-])ccc21 | -13.4% | 0.651 µM [falling, full curve] | 6.51 µM [rising, single point]
CCOC(=O)c1c(C)[nH]c(C(=O)Cn2nnc(-c3ccc(Cl)cc3)n2)c1C | -4.22% | 14.6 µM [falling, single point] | 
O=C(CN(Cc1ccco1)C(=O)CNS(=O)(=O)c1ccc(Cl)cc1)NCc1ccco1 | 19.1% | 16.4 µM [rising, partial curve] | 
COc1cccc2sc3ccc(NCc4ccc5c(c4)OCO5)cc3c(=O)c12 | 36.6% | 5.8 µM [falling, full curve] | 5.17 µM [rising, partial curve, poor fit]
CCC(=O)N[C@@H]1CC(C(C)(C)NC(=O)CC)CC=C1C (stereo partly specified) | 0.283% | 0.731 µM [falling, full curve, poor fit] | 
CCCc1cc(C(=O)Nc2ccc(C)cc2)no1 |  | 0.116 µM [falling, single point] | 
CCN(CC)c1ccc2cc(C(N)=O)/c(=N\NC(=O)c3ccncc3)oc2c1 | 28.7% | 0.146 µM [rising, full curve] | 0.164 µM [rising, full curve]

Whole records from above.
CCOC(=O)c1c(C)[nH]c(C(=O)Cn2nnc(-c3ccc(Cl)cc3)n2)c1C reads cell number change: -4.22%; AC50 [1]: 14.6 µM [falling, single point]
CCCc1cc(C(=O)Nc2ccc(C)cc2)no1 reads AC50 [1]: 0.116 µM [falling, single point]
Nc1ncc(-n2cncn2)c(-c2ccccc2)n1 reads cell number change: 0.782%

(continued)

Compound | cell number change | AC50 [1] | AC50 [2]
CCOC(=O)c1cc2c(C(F)(F)F)cc(-c3cccnc3)nc2o1 | 4.46% | 14.6 µM [rising, single point] | 
c1ccc2c(Nc3ccc(N4CCOCC4)cc3)nc(N3CCOCC3)nc2c1 | -19.3% |  | 
COC(=O)CNC(c1ccccc1)c1cc(C)ccc1NS(=O)(=O)c1ccc(C)cc1 (stereo unspecified) |  | 1.84 µM [rising, partial curve] | 0.517 µM [rising, partial curve, poor fit]
O=C(c1ccccn1)c1cc2ccccc2n1S(=O)(=O)c1ccccc1 | 12.2% | 6.51 µM [rising, single point] | 
COc1ccc(CN(C)C(=O)COC(=O)c2ccc3c(c2)OCO3)cc1OC | -2.92% | 16.4 µM [falling, single point] | 
Cc1ccc2nc(-c3cccc(Br)c3)cc(C(=O)Nn3cnnc3)c2c1 | -3.38% |  | 
Cc1cccc(C(=O)Oc2ccc(/C=N/NC(=O)Cc3ccc([N+](=O)[O-])cc3)cc2)c1 | 125% | 0.517 µM [rising, full curve] | 18.4 µM [rising, partial curve]
COc1ccccc1NC(=S)Nc1ccc2cn[nH]c2c1 | -46.5% | 20.6 µM [falling, single point] | 18.4 µM [falling, partial curve, poor fit]
CC1(c2ccccc2Cl)NC(=O)N(CC(=O)c2ccc3c(c2)OCO3)C1=O (stereo unspecified) | 48.6% |  | 29.1 µM [rising, single point]
COc1ccc(OC)c(NC(=O)CN2C(=O)NC3(CCOc4ccccc43)C2=O)c1 (stereo unspecified) | 23.9% | 23.1 µM [rising, partial curve] | 
COc1cccc(C(=O)CSc2nnc(-c3cc(OC)cc(OC)c3)o2)c1 | 2.32% | 20.6 µM [falling, single point] | 
O=C(CN(c1ccccc1)S(=O)(=O)c1ccc(Cl)cc1)Nc1cccnc1 | 5.26% |  | 4.61 µM [rising, partial curve, poor fit]
O=S(=O)(Nc1ccc2c(c1)OCCO2)c1cccc(F)c1 | 12.6% | 29.1 µM [rising, single point] | 
C=C(C)CNC(=S)NNC(=O)CCn1c2ccc(Cl)cc2c2cc(Cl)ccc21 | -49.9% | 29.1 µM [falling, single point] | 29.1 µM [falling, single point]
Cc1ccc(CNC(=O)CCc2nc(-c3cccs3)no2)cc1 | 5.89% | 2.91 µM [rising, single point] | 
Cc1ccccc1C(=O)N1CCC(C(=O)N2CCCc3ccccc32)CC1 |  | 0.731 µM [rising, partial curve] | 
NC1=NC(=Nc2ccc(Cl)cc2)c2ccccc21 | 57.6% | 14.6 µM [rising, single point] | 29.1 µM [rising, single point]
Cc1cnc(NC(=O)c2c(Cl)cnn2C)s1 | 49.2% | 8.2 µM [rising, partial curve] | 11.6 µM [rising, partial curve, poor fit]
Cc1nc2ccc(NC(=O)c3c(-c4ccccc4)noc3C)cc2s1 | 7.56% | 3.66 µM [rising, full curve, poor fit] | 
COc1ccc(N2CCN(C(=O)c3cc([N+](=O)[O-])ccc3N3CCN(CCO)CC3)CC2)cc1 | 9.68% | 23.1 µM [rising, single point] | 

Compound | cell number change | AC50 [1] | AC50 [2]
O=S(=O)(Nc1n[nH]c(C(F)(F)F)n1)c1ccccc1 | 1.49% | 0.116 µM [rising, full curve, poor fit] | 
O=c1c2c3nc4ccccc4nc3n(CC3CCCO3)c2ncn1CCc1ccccc1 (stereo unspecified) | -6.43% | 4.11 µM [rising, single point] | 
O=C(O)c1ccc(NCc2cccnc2)c([N+](=O)[O-])c1 | 30.1% |  | 32.6 µM [rising, single point]
CN(CC(=O)OCC(=O)Nc1ccccc1)S(=O)(=O)c1ccc(Cl)cc1 | -19.8% | 23.1 µM [falling, single point] | 
O=C1c2ccccc2NC(c2ccc(-c3cccs3)o2)N1O (stereo unspecified) | -6.78% | 1.16 µM [rising, partial curve, poor fit] | 
CC(C)OC(=O)CSc1nnc(-c2ccc(O)cc2)n1Cc1ccccc1 | 29.7% |  | 
Cc1cc(C)cc(C(=O)N[C@@H](C)C(=O)N2CCC3(CC2)NCCc2[nH]cnc23)c1 |  | 0.116 µM [rising, single point] | 
N#Cc1nc(Cc2cccc3ccccc23)oc1N1CCN(c2ccccc2)CC1 | 24.3% |  | 0.58 µM [rising, full curve]
C/C(=N\NC(=O)c1c(C)nc2ccccn12)c1cccc([N+](=O)[O-])c1 | 21.6% | 0.146 µM [rising, full curve, poor fit] | 
COc1ccc(S(=O)(=O)N(CC(=O)NCCCN(C)C)c2ccc(C)cc2)cc1OC | -7.37% |  | 
COC(C(=O)Nc1ccnn1C1CCN(Cc2ccc(Cl)s2)CC1)c1ccccc1 (stereo unspecified) | -20.2% |  | 
C=CCOc1nc2c(c(=O)n(C)c(=O)n2C)n1Cc1ccc(Cl)cc1 | -32.3% | 13 µM [falling, partial curve] | 9.2 µM [falling, partial curve, poor fit]
COc1ccc2c(C)nc(Nc3nc(-c4ccccc4)cc(=O)[nH]3)nc2c1 | -61.6% | 4.61 µM [falling, full curve] | 5.17 µM [falling, full curve]
OC(CNCCCCNCC(O)C(F)(F)F)C(F)(F)F (stereo unspecified) | 23.2% | 3.55 µM [rising, partial curve] | 
COc1ccc(C(=O)NCc2nnc(SCC(=O)NC3CCCC3)o2)cc1 | -5.77% | 7.31 µM [rising, partial curve] | 
Cc1cc(C)c(C)c(OCC(=O)N2CCOCC2)c1 | 66.9% |  | 23.1 µM [rising, single point]
Cc1ccc(C(=O)NNC(=S)Nc2cccc(Cl)c2Cl)cc1[N+](=O)[O-] | 46.9% |  | 0.116 µM [rising, full curve]
CC(=O)Oc1ccccc1C(=O)N1CCN(S(=O)(=O)c2ccc3ccccc3c2)CC1 | 29% | 0.82 µM [rising, full curve] | 
CCOC(=O)c1c(CN2CCC(C)CC2)n(C)c2cc(Br)c(OC)cc12 | 0.775% | 1.84 µM [rising, partial curve] | 0.517 µM [rising, full curve, poor fit]
